Test results from patent publication US20260258054A1, “SMALL MOLECULE FOR TREATMENT OF CANCER OF THE APPENDIX” (The Regents of the University of California, priority 2022, published 2026).
Entries after “also recorded” stand apart in the source; their conditions may differ. At least one compound was matched to its structure with a doubt left.

How the values were obtained:
Format in all cases: cell-based, human
[1] = system: GNAS-KO KM12 cells; test: cAMP-Glo assay, GNAS knockout KM12 cells; settings: forskolin 0-250 μM, 15 min
[2] = system: LS174T GNAS^WT cells; test: cAMP levels, LS174T GNAS^WT cells (without doxycycline); settings: forskolin 0-2.5 μM, 15 min
[3] = system: KM12 GNAS^R201H cells; test: cAMP-Glo assay, GNAS mutant KM12 cells; settings: forskolin 0-250 μM, 15 min; high cAMP at baseline

## C=C[C@@]1(C)CC(=O)[C@]2(O)[C@@]3(C)[C@@H](O)CCC(C)(C)[C@@H]3[C@H](O)[C@H](OC(C)=O)[C@@]2(C)O1 [forskolin]
[1]
  cAMP levels in response to forskolin: knockout effect could be reversed; also recorded: increase in response to forskolin
[2]
  cAMP levels in response to forskolin: increased CAMP
[3]
  cAMP levels in response to forskolin: cannot be further increased
